According to the supplement of paper PMC6411743:
± gives the standard deviation of the averaged measurements. The list shows a part of the results, in another mix than the full data. Most values lie at the level of the controls, where differences are scatter.

Protein sequences, listed by entry. Tags and fused reporters are not part of them. Lines headed by an entry give the natural chain unless they say otherwise; changes in a name come on top.
UniProt A6NC98: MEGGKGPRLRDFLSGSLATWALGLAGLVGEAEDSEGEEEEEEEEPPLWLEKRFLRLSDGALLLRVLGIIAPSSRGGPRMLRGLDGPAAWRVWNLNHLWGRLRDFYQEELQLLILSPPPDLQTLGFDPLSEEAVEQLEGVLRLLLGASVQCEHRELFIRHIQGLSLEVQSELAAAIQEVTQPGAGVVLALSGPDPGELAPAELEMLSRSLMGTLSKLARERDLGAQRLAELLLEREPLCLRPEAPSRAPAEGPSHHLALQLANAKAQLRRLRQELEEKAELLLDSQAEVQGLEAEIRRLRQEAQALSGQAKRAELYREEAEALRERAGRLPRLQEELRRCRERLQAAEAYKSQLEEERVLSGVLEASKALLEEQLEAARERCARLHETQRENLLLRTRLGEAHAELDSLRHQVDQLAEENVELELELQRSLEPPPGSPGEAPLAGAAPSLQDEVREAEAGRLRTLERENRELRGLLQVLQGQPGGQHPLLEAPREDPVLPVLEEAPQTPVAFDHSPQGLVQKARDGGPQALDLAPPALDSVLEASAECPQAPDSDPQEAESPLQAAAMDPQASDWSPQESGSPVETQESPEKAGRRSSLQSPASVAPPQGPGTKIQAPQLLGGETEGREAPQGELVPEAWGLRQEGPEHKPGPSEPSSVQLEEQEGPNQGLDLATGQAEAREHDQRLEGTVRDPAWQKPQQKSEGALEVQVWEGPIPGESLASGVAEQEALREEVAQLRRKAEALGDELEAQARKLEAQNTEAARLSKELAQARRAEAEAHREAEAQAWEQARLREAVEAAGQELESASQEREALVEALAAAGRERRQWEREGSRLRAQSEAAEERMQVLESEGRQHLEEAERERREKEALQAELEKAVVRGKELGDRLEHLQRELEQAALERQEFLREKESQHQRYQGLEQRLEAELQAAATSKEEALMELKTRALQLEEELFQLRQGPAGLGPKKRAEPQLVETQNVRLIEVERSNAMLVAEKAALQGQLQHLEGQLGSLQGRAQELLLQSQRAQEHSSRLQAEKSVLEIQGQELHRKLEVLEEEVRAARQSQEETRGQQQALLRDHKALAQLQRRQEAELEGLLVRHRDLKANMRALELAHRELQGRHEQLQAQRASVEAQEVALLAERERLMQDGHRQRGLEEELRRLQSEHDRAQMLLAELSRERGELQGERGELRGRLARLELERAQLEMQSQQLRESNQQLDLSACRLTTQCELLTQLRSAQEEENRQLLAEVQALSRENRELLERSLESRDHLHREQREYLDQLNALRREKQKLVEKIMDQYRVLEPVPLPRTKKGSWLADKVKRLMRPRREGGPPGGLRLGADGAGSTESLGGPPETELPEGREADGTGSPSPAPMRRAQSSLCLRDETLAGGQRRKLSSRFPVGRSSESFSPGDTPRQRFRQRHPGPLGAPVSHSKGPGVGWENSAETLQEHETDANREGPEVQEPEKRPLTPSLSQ
UniProt P22102: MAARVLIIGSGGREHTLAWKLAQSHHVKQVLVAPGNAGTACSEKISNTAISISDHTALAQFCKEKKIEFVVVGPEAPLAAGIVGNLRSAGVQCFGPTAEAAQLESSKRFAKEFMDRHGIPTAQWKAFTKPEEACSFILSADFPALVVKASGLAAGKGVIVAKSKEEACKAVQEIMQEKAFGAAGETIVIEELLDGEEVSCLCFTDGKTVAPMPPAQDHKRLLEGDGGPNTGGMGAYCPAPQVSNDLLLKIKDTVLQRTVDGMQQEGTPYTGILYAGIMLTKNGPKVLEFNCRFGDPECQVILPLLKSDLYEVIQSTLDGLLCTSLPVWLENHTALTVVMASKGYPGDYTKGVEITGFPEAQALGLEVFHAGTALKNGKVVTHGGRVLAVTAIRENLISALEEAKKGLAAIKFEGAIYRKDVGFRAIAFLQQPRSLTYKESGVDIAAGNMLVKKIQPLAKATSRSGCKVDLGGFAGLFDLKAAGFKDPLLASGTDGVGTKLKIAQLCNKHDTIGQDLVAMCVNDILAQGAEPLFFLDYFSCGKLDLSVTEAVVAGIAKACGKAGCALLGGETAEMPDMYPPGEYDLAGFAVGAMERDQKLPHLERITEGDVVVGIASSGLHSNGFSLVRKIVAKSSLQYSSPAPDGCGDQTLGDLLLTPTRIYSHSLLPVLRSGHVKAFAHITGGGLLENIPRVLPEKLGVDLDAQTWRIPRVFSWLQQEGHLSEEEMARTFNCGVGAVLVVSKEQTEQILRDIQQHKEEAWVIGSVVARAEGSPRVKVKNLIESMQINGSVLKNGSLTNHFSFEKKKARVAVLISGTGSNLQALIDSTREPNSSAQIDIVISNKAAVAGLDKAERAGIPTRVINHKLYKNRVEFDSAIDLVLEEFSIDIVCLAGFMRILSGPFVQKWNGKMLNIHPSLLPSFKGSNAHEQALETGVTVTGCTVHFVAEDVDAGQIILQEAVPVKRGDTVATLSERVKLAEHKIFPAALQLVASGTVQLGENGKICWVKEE
UniProt Q12857, whole entry: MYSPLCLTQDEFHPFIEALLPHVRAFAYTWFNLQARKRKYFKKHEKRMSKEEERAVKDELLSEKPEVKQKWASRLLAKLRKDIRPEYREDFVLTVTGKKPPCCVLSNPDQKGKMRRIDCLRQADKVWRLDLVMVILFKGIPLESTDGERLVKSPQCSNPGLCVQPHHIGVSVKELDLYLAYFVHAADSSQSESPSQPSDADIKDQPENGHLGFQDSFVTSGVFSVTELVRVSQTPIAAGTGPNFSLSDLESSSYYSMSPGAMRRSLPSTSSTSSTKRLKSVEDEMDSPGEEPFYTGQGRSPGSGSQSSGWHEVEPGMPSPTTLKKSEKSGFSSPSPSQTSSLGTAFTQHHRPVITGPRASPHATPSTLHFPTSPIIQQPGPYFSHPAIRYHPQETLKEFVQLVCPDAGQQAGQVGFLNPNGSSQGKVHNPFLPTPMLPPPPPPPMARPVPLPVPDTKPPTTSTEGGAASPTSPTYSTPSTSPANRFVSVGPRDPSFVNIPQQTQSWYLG
UniProt Q12979: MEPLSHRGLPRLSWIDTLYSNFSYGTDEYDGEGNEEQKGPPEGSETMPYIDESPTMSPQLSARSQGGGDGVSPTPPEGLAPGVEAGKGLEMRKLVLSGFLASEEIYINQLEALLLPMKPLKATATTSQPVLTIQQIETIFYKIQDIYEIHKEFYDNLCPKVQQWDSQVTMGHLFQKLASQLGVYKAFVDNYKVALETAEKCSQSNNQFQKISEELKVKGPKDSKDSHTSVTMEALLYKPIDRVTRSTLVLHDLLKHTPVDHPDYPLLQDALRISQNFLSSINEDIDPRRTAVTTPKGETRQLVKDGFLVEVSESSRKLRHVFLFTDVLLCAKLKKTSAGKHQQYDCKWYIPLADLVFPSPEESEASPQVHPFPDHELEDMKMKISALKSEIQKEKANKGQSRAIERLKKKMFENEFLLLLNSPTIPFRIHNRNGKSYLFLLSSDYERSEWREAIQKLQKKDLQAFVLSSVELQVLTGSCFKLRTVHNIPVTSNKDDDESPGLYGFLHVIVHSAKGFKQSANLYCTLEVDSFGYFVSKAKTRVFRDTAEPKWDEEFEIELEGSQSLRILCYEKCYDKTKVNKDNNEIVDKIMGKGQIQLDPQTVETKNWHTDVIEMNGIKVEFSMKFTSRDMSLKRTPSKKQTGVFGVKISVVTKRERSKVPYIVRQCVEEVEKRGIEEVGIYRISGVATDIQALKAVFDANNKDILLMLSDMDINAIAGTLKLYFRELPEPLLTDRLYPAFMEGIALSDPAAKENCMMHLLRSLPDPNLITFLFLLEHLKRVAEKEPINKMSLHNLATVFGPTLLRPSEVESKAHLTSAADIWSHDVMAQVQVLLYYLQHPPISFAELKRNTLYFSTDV
UniProt Q96GQ7: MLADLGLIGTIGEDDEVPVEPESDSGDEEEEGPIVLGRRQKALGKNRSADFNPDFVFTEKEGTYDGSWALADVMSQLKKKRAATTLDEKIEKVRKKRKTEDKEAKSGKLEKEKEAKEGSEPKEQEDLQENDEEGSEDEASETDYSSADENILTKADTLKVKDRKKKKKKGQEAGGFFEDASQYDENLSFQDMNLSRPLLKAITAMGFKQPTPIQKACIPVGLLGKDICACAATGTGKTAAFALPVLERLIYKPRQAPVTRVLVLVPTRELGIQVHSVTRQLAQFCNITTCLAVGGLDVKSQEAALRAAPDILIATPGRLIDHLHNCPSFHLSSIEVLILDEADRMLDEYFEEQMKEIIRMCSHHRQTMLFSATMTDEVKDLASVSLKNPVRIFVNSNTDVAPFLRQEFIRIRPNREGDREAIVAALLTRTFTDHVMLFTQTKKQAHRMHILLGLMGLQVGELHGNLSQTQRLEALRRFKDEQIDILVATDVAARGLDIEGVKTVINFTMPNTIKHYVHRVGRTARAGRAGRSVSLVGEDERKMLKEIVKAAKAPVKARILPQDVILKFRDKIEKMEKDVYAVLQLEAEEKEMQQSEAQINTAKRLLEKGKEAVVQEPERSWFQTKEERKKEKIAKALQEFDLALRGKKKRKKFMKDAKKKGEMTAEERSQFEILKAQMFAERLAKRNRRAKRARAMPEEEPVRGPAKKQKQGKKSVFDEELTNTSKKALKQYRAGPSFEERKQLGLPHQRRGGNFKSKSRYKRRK
UniProt Q53GS9: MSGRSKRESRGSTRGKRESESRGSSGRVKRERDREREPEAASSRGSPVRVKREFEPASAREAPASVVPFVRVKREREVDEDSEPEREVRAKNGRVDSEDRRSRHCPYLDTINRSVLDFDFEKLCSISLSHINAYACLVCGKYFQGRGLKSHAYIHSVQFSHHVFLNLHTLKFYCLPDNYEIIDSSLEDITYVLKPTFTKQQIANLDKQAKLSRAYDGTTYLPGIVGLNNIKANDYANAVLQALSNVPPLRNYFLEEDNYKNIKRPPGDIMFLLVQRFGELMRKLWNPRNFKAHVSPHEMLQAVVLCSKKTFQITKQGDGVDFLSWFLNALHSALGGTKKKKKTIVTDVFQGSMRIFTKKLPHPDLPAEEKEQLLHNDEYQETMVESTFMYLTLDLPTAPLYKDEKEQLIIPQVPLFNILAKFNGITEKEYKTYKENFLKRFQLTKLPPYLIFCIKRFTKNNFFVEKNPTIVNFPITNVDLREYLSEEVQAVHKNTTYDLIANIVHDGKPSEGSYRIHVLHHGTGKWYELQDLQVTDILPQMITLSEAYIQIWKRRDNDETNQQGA
UniProt O95260: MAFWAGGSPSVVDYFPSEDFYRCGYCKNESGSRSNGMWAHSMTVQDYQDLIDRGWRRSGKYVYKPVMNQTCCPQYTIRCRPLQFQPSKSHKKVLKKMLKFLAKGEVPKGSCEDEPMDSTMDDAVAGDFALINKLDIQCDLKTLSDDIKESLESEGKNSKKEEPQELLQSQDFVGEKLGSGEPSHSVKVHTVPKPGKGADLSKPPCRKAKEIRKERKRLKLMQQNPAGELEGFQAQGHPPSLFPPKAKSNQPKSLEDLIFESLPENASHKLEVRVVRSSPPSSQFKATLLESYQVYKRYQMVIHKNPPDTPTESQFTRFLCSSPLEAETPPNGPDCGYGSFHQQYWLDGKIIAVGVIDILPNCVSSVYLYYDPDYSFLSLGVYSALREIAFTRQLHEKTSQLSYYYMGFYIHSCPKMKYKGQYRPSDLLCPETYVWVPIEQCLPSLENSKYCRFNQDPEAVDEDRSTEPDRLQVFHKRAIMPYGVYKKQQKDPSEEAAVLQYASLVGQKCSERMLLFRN
UniProt P35222, whole entry: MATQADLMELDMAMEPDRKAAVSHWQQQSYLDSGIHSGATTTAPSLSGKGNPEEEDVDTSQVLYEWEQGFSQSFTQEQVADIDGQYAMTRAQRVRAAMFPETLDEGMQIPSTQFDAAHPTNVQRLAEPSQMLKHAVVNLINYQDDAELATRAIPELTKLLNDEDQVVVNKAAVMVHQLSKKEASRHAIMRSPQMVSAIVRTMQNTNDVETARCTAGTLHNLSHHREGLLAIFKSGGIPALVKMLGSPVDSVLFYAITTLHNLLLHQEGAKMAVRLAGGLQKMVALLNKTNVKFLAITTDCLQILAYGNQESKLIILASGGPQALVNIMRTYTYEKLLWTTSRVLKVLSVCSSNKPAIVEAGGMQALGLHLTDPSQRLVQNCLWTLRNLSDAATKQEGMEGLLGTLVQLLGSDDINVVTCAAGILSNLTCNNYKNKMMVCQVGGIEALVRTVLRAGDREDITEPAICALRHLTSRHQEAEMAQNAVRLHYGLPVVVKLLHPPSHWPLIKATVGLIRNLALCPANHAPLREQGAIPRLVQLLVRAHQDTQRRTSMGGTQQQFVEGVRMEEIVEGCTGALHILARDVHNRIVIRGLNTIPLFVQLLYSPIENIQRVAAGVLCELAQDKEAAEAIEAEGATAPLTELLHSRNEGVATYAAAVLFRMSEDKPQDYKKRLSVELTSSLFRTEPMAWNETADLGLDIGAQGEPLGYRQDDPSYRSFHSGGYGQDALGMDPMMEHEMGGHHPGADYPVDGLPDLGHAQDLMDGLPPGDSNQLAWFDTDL

Compound: Nc1ncnc2c1ncn2[C@@H]1O[C@H](COP(=O)(O)OP(=O)(O)NP(=O)(O)O)[C@@H](O)[C@H]1O [adenylyl imidodiphosphate]
Assay: NP40-soluble protein abundance relative to vehicle (solubility fold change) (ratio); higher = more soluble protein in presence of AMP-PNP
How it was run: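 Data come from three independent experiments in which Dounce-homogenised Jurkat crude lysate was treated at eight concentrations from 0.1 to 10 mM. Treatment ran 10 min at room temperature and then 3 min at 37 °C, after which 0.8% NP40 and benzonase were added for 60 min at 4 °C before ultracentrifugation. The supernatant underwent TMT labelling and LC-MS/MS, and vsn-normalised intensities were expressed as fold change against the detergent-processed vehicle in each replicate.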

Row | Target | NP40-soluble protein abundance (concentration: 0.1mM) | NP40-soluble protein abundance (concentration: 0.5mM)
1 | C9J381 and related entries (UniProt P20839) | 1 ± 0.014 | 0.973 ± 0.036
2 | E5RI87 and related entries (UniProt Q86XS8) | 1.03 ± 0.068 | 1.03 ± 0.033
3 | CCDC88B (UniProt A6NC98) | 0.995 ± 0.0073 | 0.991 ± 0.027
4 | B7ZC38 and related entries (UniProt Q9NR46) | 0.968 ± 0.042 | 0.982 ± 0.016
5 | C9JCC6 and related entries (UniProt Q14919) | 1.05 ± 0.11 | 1.05 ± 0.14
6 | B5MCH3 and related entries (UniProt Q8N3C7) | 0.984 ± 0.024 | 0.992 ± 0.014
7 | C9JKQ7 and related entries (UniProt P22102) | 1.01 ± 0.014 | 1.01 ± 0.017
8 | B1AKN5 and related entries (UniProt Q12857) | 1.01 ± 0.066 | 1.01 ± 0.047
9 | UniProt A8MWY0 and related entries | 1.04 ± 0.044 | 0.987 ± 0.012
10 | D6RAN4 and related entries (UniProt P32969) | 1.04 ± 0.032 | 1.02 ± 0.038
11 | B7Z683 and related entries (UniProt Q12979) | 1.02 ± 0.022 | 0.9816 ± 0.0084
12 | C9JF66 and related entries (UniProt Q6PIZ9) | 0.986 ± 0.013 | 0.994 ± 0.014
13 | B7Z6D5 and related entries (UniProt Q96GQ7) | 1.009 ± 0.0091 | 1.03 ± 0.032
14 | B4E0T2 and related entries (UniProt P50542) | 0.994 ± 0.021 | 0.976 ± 0.037
15 | B9A018 and related entries (UniProt Q53GS9) | 1.038 ± 0.0095 | 1.01 ± 0.072
16 | B4E107 and related entries (UniProt O95260) | 0.9888 ± 0.009 | 1.01 ± 0.015
17 | B4DGU4 and related entries (UniProt P35222) | 0.97 ± 0.043 | 1.01 ± 0.025
18 | D6RER5 and related entries (UniProt Q9NVA2) | 0.97 ± 0.023 | 1 ± 0.023
19 | D6RE75 and related entries (UniProt Q8NEZ3) | 0.9989 ± 0.0036 | 0.975 ± 0.042
20 | MYO1G (UniProt B0I1T2) | 1.11 ± 0.045 | 1.09 ± 0.089
21 | C9JZB0 and related entries (UniProt Q9BT40) | 1 ± 0.04 | 1.01 ± 0.076
22 | B5MCH7 and related entries (UniProt Q9Y6E2) | 1 ± 0.023 | 1.01 ± 0.041
23 | C9JNW5 and related entries (UniProt P83731) | 1.07 ± 0.034 | 1 ± 0.035

Part of the list above, reformatted.
Row	Target	NP40-soluble protein abundance (concentration: 0.1mM)	NP40-soluble protein abundance (concentration: 0.5mM)
1	C9J381 and related entries (UniProt P20839)	1 ± 0.014	0.973 ± 0.036
2	E5RI87 and related entries (UniProt Q86XS8)	1.03 ± 0.068	1.03 ± 0.033
